{"source": "PubChem BioAssay AID1259308 | NCATS – 2017", "test": "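Candidate targets for better recombinant protein yield in mammalian cells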 (primary screen)", "cells": "human HEK293 embryonic kidney cells stably expressing firefly luciferase (HEK-CMV-Luc2-Hygro)", "knock-down reagent": "single siRNA against human genes, 0.8 pmol siRNA per well", "timing": "72 h", "measurement": "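Luciferase light (ONE-Glo) measured on one replicate plate set and viability (CellTiter-Glo) on the other, scaled to a negative control siRNA, with robust z-scores and luciferase per cell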", "reading the numbers": "total luciferase, z-score and total luciferase, % of control: higher = more reporter protein produced", "call rule": "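Active when the median/MAD z-score for overall luciferase is greater than 3; a gene was taken forward for validation with new siRNAs if at least two of its three siRNAs passed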", "calls": "active = raised luciferase; inactive = no rise", "note": "The whole screen tested about 59,000 reagents; this is an unselected part. About 1,510 of all reagents (2.6%) count as active. 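Calls use total luciferase alone and ignore viability, so some active siRNAs may act by altering cell number.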 A number with no mark means an inactive call. The numbers tell different reagents against one gene apart. Further read-outs or replicates are left out here."}
{"target gene": "LRRC38", "reagent no.": 1, "total luciferase, z-score": 0.272, "total luciferase, % of control": 87.3}
{"target gene": "LRRC38", "reagent no.": 2, "total luciferase, z-score": -0.321, "total luciferase, % of control": 75.5}
{"target gene": "LRRC38", "reagent no.": 3, "total luciferase, z-score": -1.36, "total luciferase, % of control": 54.9}
{"target gene": "OR7A5", "reagent no.": 1, "total luciferase, z-score": -0.407, "total luciferase, % of control": 73.8}
{"target gene": "OR7A5", "reagent no.": 2, "total luciferase, z-score": -0.21, "total luciferase, % of control": 77.7}
{"target gene": "OR7A5", "reagent no.": 3, "total luciferase, z-score": 1.04, "total luciferase, % of control": 102}
{"target gene": "GSTA12P", "reagent no.": 1, "total luciferase, z-score": -1.02, "total luciferase, % of control": 61.5}
{"target gene": "GSTA12P", "reagent no.": 2, "total luciferase, z-score": -0.179, "total luciferase, % of control": 78.3}
{"target gene": "GSTA12P", "reagent no.": 3, "total luciferase, z-score": -0.135, "total luciferase, % of control": 79.2}
{"target gene": "SLC6A4", "reagent no.": 1, "total luciferase, z-score": 0.786, "total luciferase, % of control": 97.5}
{"target gene": "SLC6A4", "reagent no.": 2, "total luciferase, z-score": 0.425, "total luciferase, % of control": 90.3}
{"target gene": "SLC6A4", "reagent no.": 3, "total luciferase, z-score": -1.48, "total luciferase, % of control": 52.4}

In a second layout: entries from further up
target gene,reagent no.,"total luciferase, z-score","total luciferase, % of control"
OR7A5,2,-0.21,77.7
OR7A5,3,1.04,102

Further entries follow.
{"target gene": "CHEK1", "reagent no.": 1, "total luciferase, z-score": -0.144, "total luciferase, % of control": 79}
{"target gene": "CHEK1", "reagent no.": 2, "total luciferase, z-score": -1.18, "total luciferase, % of control": 58.4}
{"target gene": "CHEK1", "reagent no.": 3, "total luciferase, z-score": -0.968, "total luciferase, % of control": 62.6}
{"target gene": "C19orf44", "reagent no.": 1, "total luciferase, z-score": 1.15, "total luciferase, % of control": 105}
{"target gene": "C19orf44", "reagent no.": 2, "total luciferase, z-score": 1.28, "total luciferase, % of control": 107}
{"target gene": "C19orf44", "reagent no.": 3, "total luciferase, z-score": -0.731, "total luciferase, % of control": 67.3}
{"target gene": "RPS2P20", "reagent no.": 1, "total luciferase, z-score": 0.372, "total luciferase, % of control": 89.3}
{"target gene": "RPS2P20", "reagent no.": 2, "total luciferase, z-score": 0.0843, "total luciferase, % of control": 83.6}
{"target gene": "RPS2P20", "reagent no.": 3, "total luciferase, z-score": 0.0441, "total luciferase, % of control": 82.8}
